Source: PubChem BioAssay AID590 (National Center for Advancing Translational Sciences (NCATS), 2007)
Out of some 59,000 compounds screened, about 6,500 (11%) were called active. Inconclusive means that the source gave no clear call. Such entries were picked first, then a sample of the others. Rule as the data show it: active = max dye-equivalent concentration above about 10 nM; inconclusive = mostly about 1.1 nM to 9.6 nM; inactive = weaker than that. More than one record can exist for a structure, and the calls need not agree.

Assay: qHTS Assay for Spectroscopic Profiling in A350 Spectral Region
Settings: Compound autofluorescence, 340/450 nm, Alexa 350 dye-equivalents; hits give high values

Compound	max dye-equivalent concentration
Cc1ccc(Cn2c(CN3CCOCC3)nc3c2c(=O)[nH]c(=O)n3C)cc1	inactive
CN(C)C(=O)c1ccc(-c2nc(-n3ccnc3)c3ccccc3n2)cc1	inactive
Cn1cc(-c2nc3cnc(N4CCNCC4)nc3n(-c3ccccc3)c2=O)c2ccccc21	inactive
COc1ccc(-c2nnc3sc(COc4ccccc4)nn23)cc1	inactive
COC(=O)c1ccccc1Nc1ccccc1	inconclusive: 2.6 nM
COCCCNc1nc2ccccc2nc1NS(=O)(=O)c1cccs1	active: 56 nM
CN(C)CCCN1c2ccccc2Sc2ccccc21	inconclusive: 1.4 nM
CCN1CCc2c(C#N)c(NCc3ccccc3)nc(N(CC)CC)c2C1	inconclusive: 5.2 nM
O=C1Cn2c(nc3ccccc32)-c2ccccc2N1	inconclusive: 6.7 nM
CC(=O)CCc1ccc(OCCCCn2cncn2)cc1	inconclusive: 1.3 nM
Cc1ccc2cc(CN(Cc3ccco3)C(=O)c3cccs3)c(=O)[nH]c2c1	inactive
CCOC(=O)c1[nH]c2ccc(C)cc2c1N	inconclusive: 8.8 nM
CCC(NC(=O)Cn1cnc2c(=O)n(C)c(=O)n(C)c21)c1ccccc1 (configuration not stated)	inconclusive: 1.2 nM
CCCn1c(-c2cccs2)nc2ccccc21	inconclusive: 1.7 nM
O=C(CCN1C(=O)C2C3C=CC(C3)C2C1=O)Nc1nccs1 (configuration not stated)	inactive
COC(=O)c1ccc2ccn(CC(=O)NC(C)C)c2c1	active: 15 nM
O=C(NC(=O)N1CCN(c2ccccc2F)CC1)c1ccccc1	inconclusive: 1.1 nM
Cc1cccc2cc(C(c3nnnn3CC3CCCO3)N3CCCC4(CCCCC4)C3)c(=O)[nH]c12 (configuration not stated)	inconclusive: 5.1 nM
COc1ccc(S(=O)(=O)CCC(=O)NC2CCCCC2)cc1	inconclusive: 1.4 nM
O=[n+]1cc(-c2ccccc2)n([O-])c2c1CCC2	active: 13 nM
CCOC(=O)c1cc(-c2cc3ccccc3o2)nc2c1c(=O)[nH]c(=O)n2CCOC	active: 3400 nM
Cc1nc2cnc(N3CCNCC3)nc2n(C2CC2)c1=O	active: 110 nM
COc1ccc(CCNc2ncnc3c2oc2ccccc23)cc1OC	active: 39 nM
CCOC(=O)C1CCN(CC(=O)Nc2c(C(=O)OC)[nH]c3ccccc23)CC1	inconclusive: 1.6 nM
CCOC(=O)CSc1nnc(Cc2cc(=O)[nH]c(=O)[nH]2)n1-c1cccc(OC)c1	inconclusive: 1.9 nM

Compound	max dye-equivalent concentration
CCOC(=O)NC1(NC2CCCCC2)Oc2ccccc2O1	inconclusive: 2.4 nM
O=c1c(-c2ccccc2)nc2cnc(Nc3ccccc3)nc2n1Cc1cccs1	inconclusive: 2.2 nM
N#CCCn1c(=O)cnc2cnc(Nc3ccccc3)nc21	inconclusive: 3.3 nM
CC1(C)[N+]([O-])=C2C(=[N+]([O-])C1(C)C)c1ccccc1/C2=N\O	inconclusive: 1.6 nM
O=C1Cc2ccccc2N1c1ccccc1	inconclusive: 1.1 nM
Cc1noc(NS(=O)(=O)c2ccc(NC(=O)c3ccc(Br)o3)cc2)c1C	inactive
CCCCCn1ccc(=N)cc1	inconclusive: 1.4 nM
CCOC(=O)CCc1c(C)c(C#N)c2nc3ccccc3n2c1-n1ccnc1C	inconclusive: 8.3 nM
O=C(c1ccncc1)N1CCN(C(=O)c2ccco2)CC1	inactive
COc1ccc2[nH]c3nc(SC(C)C)nnc3c2c1	inactive
O=C1Nc2ccccc2C12OCCS2 (configuration not stated)	inconclusive: 1.5 nM
Cc1csc(=NC(=O)c2ccccc2)n1Cc1ccco1	inconclusive: 1.7 nM
Cc1cc(-c2nc3ccccc3o2)c2ccccc2n1	active: 11 nM
O=C1OCCC1N1C(=O)c2ccccc2S1(=O)=O (configuration not stated)	inactive
c1ccc2oc(-c3nn4c(Cn5cnc6ccccc65)nnc4s3)cc2c1	inconclusive: 8.5 nM
COc1cc(S(C)=O)ccc1-c1nc2ncccc2[nH]1 (configuration not stated)	inconclusive: 7.6 nM
Cc1ccc(NC(=O)COC(=O)c2ccc3c(c2)NC(=O)C2CCCN32)cc1 (configuration not stated)	inconclusive: 5.2 nM
Cc1ccccc1CN(c1ccc(C(N)=O)cc1)S(C)(=O)=O	inconclusive: 1.1 nM
O=S(=O)(c1ccc(OCC(O)CN2CCC(Cc3ccccc3)CC2)cc1)N1CCOCC1 (configuration not stated)	inconclusive: 3 nM
COC(=O)C1(C(=O)OC)Sc2ccccc2C1=O	active: 120 nM
CC(C)C(C(=O)C=[N+]=[N-])N1C(=O)c2ccccc2C1=O (configuration not stated)	inconclusive: 2.3 nM
CN(C)c1ncc2nc(-c3ccccc3)c(=O)n(C3CC3)c2n1	active: 56 nM
CC(C)N1C(=O)CCC1C(=O)N1CCCc2ccccc21 (configuration not stated)	inconclusive: 1.3 nM
Cc1cccc(C)c1NC(=O)C(c1ccccc1)N1CCC2(CC1)OCCO2 (configuration not stated)	inactive
Cc1nn(C)c(C)c1S(=O)(=O)NCc1cccs1	inconclusive: 8.3 nM

Compound	max dye-equivalent concentration
N#Cc1c(N)c(C(=O)c2ccccc2)n2c1CCC2	inactive
Cc1cc(C)c(NC(=O)CCCN2CCOCC2)c(C)c1	inactive
CCCCCc1nc2c(=O)n(C)c3ccccc3c2o1	inactive
C=CCn1c(COc2ccc(Cl)cc2)nnc1SCC(=O)N1CC(=O)Nc2ccccc21	inactive
Nc1nc(Cl)nc2c1ncn2[C@@H]1O[C@@H](CO)[C@@H](O)[C@H]1O	inactive
CCCSc1nc(C)c(CC(=O)O)c(=O)[nH]1	inactive
O=C(NCc1cccs1)c1nc2ncccn2n1	inconclusive: 2.5 nM
Cc1nn(CC(=O)Nc2ccccc2)c(=O)c2ccccc12	inconclusive: 1.2 nM
COc1cccc(C2=NOC(C(=O)NCc3ccccc3)C2)c1 (configuration not stated)	inactive
Cc1ccc(-c2nnc3sc(-c4ccncc4)nn23)cc1	inconclusive: 2.2 nM
O=C1[C@@H]2C(c3ccccc3Cl)=NO[C@@H]2C(=O)N1Cc1ccccc1	inconclusive: 1.2 nM
COc1ccc(-c2cc(C(F)(F)F)nc(SCC(=O)Nc3cc(C)on3)n2)cc1	active: 73 nM
COC(=O)c1ccc(OC(=O)c2ccc(OC)c(OC)c2)c(OC)c1	inactive
N#Cc1c(SCC(=O)Nc2nccs2)nc2c(c1-c1ccco1)CCCC2	inconclusive: 1.3 nM
Cc1ccc(S(=O)(=O)N2CCOCC2)cc1C(=O)NCc1ccco1	inconclusive: 1.2 nM
Cc1ccc(N2C(=O)c3ccccc3C2=O)cc1Cl	inactive
COc1ccc(N2CCN(c3oc(-c4ccco4)nc3C#N)CC2)cc1	inactive
CCOC(=O)c1cc2c(=O)n3cccc(C)c3nc2n(CCc2ccccc2)c1=N	active: 290 nM
Cc1cc(C(=O)O)ccc1-n1c(C)ccc1C	inactive
O=NN(Cc1ccc(Cl)cc1)[C@@H](C(=O)O)c1ccccc1	inactive
COc1ccccc1-c1nccc(N2CCN(C)CC2)n1	inactive
O=C1O[C@@H]([C@H](O)[C@H](O)[C@H](O)CO)[C@@H](O)[C@@H]1O	inactive
Cc1[nH]c(=O)[nH]c(=O)c1S(=O)(=O)N1CCCC1	inactive
Cc1ccc(C)c(N(CC(N)=O)S(C)(=O)=O)c1	inconclusive: 1.4 nM
CC(=O)Nc1cccc(Oc2cc(C#N)c(C#N)cc2N2CCOCC2)c1	inconclusive: 1.3 nM

Compound	max dye-equivalent concentration
COC(=O)[C@H]1[C@H]2C[C@H]3c4[nH]c5ccccc5c4CCN3C[C@@H]2CC[C@@H]1O	inconclusive: 1.6 nM
CCOC(=O)c1c2c(c(=S)n(-c3ccccc3)c1N)CCC2	inconclusive: 3.7 nM
Cn1c(SCc2ccc(Br)cc2)nnc1-c1ccncc1	inactive
CCc1nnc(NC(=O)C2CCN(S(=O)(=O)Cc3ccccc3)CC2)s1	inconclusive: 2.4 nM
COc1ccc(Cn2nnnc2C(C(C)C)N2CCN(c3ccccc3OC)CC2)cc1 (configuration not stated)	inconclusive: 1.8 nM
O=C(c1ccccc1)N1CCCCC(Sc2nnc3ccccn23)C1=O (configuration not stated)	inactive
Cc1ccc(C)n1-n1cnc2sc3c(c2c1=O)CCC3	inconclusive: 9.5 nM
COc1cccc(CSc2nc3sc(C)c(C)c3c(=O)n2Cc2ccco2)c1	inactive
O=C(CSc1ccc2nnc(-c3ccc(F)cc3)n2n1)NCC1CCCO1 (configuration not stated)	active: 19 nM
Cn1c(=O)c2c(nc(NCc3ccc4c(c3)OCO4)n2Cc2ccccc2)n(C)c1=O	inactive
Cc1cccn2c(=O)c3cc(C(=O)Nc4ccc(N(C)C)cc4)n(C)c3nc12	inconclusive: 5.4 nM
Cc1ccc(C(=O)CSC2=C(C#N)C(c3ccco3)C3=C(CCCC3=O)N2)cc1 (configuration not stated)	inactive
COCCn1c(=O)c(-c2cccc(C#N)c2)nc2cnc(Oc3ccccc3)nc21	inconclusive: 1.3 nM
CC1=CC(C)(C)Nc2ccc(C)cc21	active: 210 nM
CC1(C)NC(=O)N(CC(O)COC2CCCCC2)C1=O (configuration not stated)	inactive
COCCn1c(=O)c(-c2cc(F)cc(F)c2)nc2cnc(OC)nc21	inconclusive: 6.1 nM
COc1cc(CNCc2ccc(OC)c(OC)c2OC)cc(OC)c1	inactive
CCn1c(SCC(=O)N2CCN(c3ccccc3F)CC2)nnc1-c1ccoc1C	inactive
ONC(=Nc1ccccc1)C(=Nc1ccccc1)NO	inconclusive: 1.3 nM
O=c1cnc2cnc(N3CCNCC3)nc2n1Cc1cccs1	inconclusive: 6.4 nM
COCCN1CCN(c2c(C)c(C)nc3cc(-c4cccc(OC)c4)nn23)CC1	inconclusive: 6.1 nM
Cc1ccc(SC/C(O)=C(\C#N)c2nc3ccccc3s2)cc1	inconclusive: 4.5 nM

6 of the compounds above, comma-delimited:
Compound,max dye-equivalent concentration
Cc1cccn2c(=O)c3cc(C(=O)Nc4ccc(N(C)C)cc4)n(C)c3nc12,inconclusive: 5.4 nM
COCCn1c(=O)c(-c2cccc(C#N)c2)nc2cnc(Oc3ccccc3)nc21,inconclusive: 1.3 nM
CC1=CC(C)(C)Nc2ccc(C)cc21,active: 210 nM
ONC(=Nc1ccccc1)C(=Nc1ccccc1)NO,inconclusive: 1.3 nM
O=c1cnc2cnc(N3CCNCC3)nc2n1Cc1cccs1,inconclusive: 6.4 nM
Cc1ccc(SC/C(O)=C(\C#N)c2nc3ccccc3s2)cc1,inconclusive: 4.5 nM
